Measurements from article PMC12041854, “CARM1/PRMT4 facilitates XPF–ERCC1 heterodimer assembly and maintains nucleotide excision repair activity” (Nucleic Acids Research, 2025).
These are yes or no findings as the source states them, for the method shown. In cells and extracts the contact can be indirect. Some results given as binding are weak or reduced against the parent protein; the word gives no strength. For some assays here: Tags and fused reporters may be left off the sequences shown.

T1: GST-CARM1 (UniProt Q86X55)
T1 sequence: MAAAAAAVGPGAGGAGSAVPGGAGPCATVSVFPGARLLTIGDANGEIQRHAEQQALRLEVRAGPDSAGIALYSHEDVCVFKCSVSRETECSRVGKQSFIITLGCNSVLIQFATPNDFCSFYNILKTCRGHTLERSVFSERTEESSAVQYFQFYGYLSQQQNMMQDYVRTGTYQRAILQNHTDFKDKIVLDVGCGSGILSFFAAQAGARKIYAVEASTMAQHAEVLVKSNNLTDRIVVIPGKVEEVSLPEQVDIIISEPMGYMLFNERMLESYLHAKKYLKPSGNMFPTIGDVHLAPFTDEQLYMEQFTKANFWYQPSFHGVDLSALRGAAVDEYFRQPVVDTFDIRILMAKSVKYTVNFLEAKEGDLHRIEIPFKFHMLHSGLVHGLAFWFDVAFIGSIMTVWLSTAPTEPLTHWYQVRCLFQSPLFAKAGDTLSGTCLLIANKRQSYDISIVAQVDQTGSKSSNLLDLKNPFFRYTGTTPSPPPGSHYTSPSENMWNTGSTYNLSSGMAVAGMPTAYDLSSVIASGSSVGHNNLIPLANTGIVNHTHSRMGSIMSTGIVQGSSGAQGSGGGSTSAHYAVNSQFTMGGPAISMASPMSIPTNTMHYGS

T2: CARM1-FLAG-WT (UniProt Q86X55)
T2 sequence: T1 sequence

T3: METTL23 (UniProt Q86XA0)
T3 sequence: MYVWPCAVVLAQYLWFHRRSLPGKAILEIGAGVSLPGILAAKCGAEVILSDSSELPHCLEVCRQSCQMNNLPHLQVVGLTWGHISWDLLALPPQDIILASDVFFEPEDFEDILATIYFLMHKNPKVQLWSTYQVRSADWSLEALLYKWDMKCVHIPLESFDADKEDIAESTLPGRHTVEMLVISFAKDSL

T4: endogenous CARM1 (human (endogenous in HeLa and HEK293)) (UniProt Q86X55)
T4 sequence: T1 sequence

B1: XPF WT-Myc (protein, UniProt Q92889 1-916)
chain: MESGQPARRIAMAPLLEYERQLVLELLDTDGLVVCARGLGADRLLYHFLQLHCHPACLVLVLNTQPAEEEYFINQLKIEGVEHLPRRVTNEITSNSRYEVYTQGGVIFATSRILVVDFLTDRIPSDLITGILVYRAHRIIESCQEAFILRLFRQKNKRGFIKAFTDNAVAFDTGFCHVERVMRNLFVRKLYLWPRFHVAVNSFLEQHKPEVVEIHVSMTPTMLAIQTAILDILNACLKELKCHNPSLEVEDLSLENAIGKPFDKTIRHYLDPLWHQLGAKTKSLVQDLKILRTLLQYLSQYDCVTFLNLLESLRATEKAFGQNSGWLFLDSSTSMFINARARVYHLPDAKMSKKEKISEKMEIKEGEETKKELVLESNPKWEALTEVLKEIEAENKESEALGGPGQVLICASDDRTCSQLRDYITLGAEAFLLRLYRKTFEKDSKAEEVWMKFRKEDSSKRIRKSHKRPKDPQNKERASTKERTLKKKKRKLTLTQMVGKPEELEEEGDVEEGYRREISSSPESCPEEIKHEEFDVNLSSDAAFGILKEPLTIIHPLLGCSDPYALTRVLHEVEPRYVVLYDAELTFVRQLEIYRASRPGKPLRVYFLIYGGSTEEQRYLTALRKEKEAFEKLIREKASMVVPEEREGRDETNLDLVRGTASADVSTDTRKAGGQEQNGTQQSIVVDMREFRSELPSLIHRRGIDIEPVTLEVGDYILTPEMCVERKSISDLIGSLNNGRLYSQCISMSRYYKRPVLLIEFDPSKPFSLTSRGALFQEISSNDISSKLTLLTLHFPRLRILWCPSPHATAELFEELKQSKPQPDAATALAITADSETLPESEKYNPGPQDFLLKMPGVNAKNCRSLMHHVKNIAELAALSQDELTSILGNAANAKQLYDFIHTSFAEVVSKGKGKK
B2: endogenous XPF (protein, UniProt Q92889 1-916)
chain: B1 chain
B3: XPF-Myc induced by DOX in HeLa cells (protein, UniProt Q92889 1-916)
chain: B1 chain

What was measured:
GST-CARM1 = target: T1, GST-CARM1; experiment: pull-down; lysate of HEK293 overexpressing XPF WT-Myc and ERCC1 mixed with purified GST-CARM1; MagneGST glutathione particles; washed three times with His-Lysis buffer; western blot; only the target purified
CARM1-FLAG-WT = target: T2, CARM1-FLAG-WT; experiment: co-IP; XPF-Myc, ERCC1 and CARM1-FLAG co-expressed in HEK293; IP with anti-FLAG or anti-Myc antibody, protein G agarose, western blot; 25 mM Tris-HCl pH 7.5, 0.5% NP-40, 20 mM NaCl, 2 mM MgCl2
METTL23 = target: T3, METTL23; experiment: co-IP; METTL23 overexpressed in HEK293, endogenous XPF; IP-western blotting
[1] = target: T4, endogenous CARM1 (human (endogenous in HeLa and HEK293)); experiment: co-IP; DOX-induced XPF-Myc in HeLa cells, or endogenous XPF in HEK293 cells, with endogenous CARM1

Row | binding (GST-CARM1) | binding (CARM1-FLAG-WT) | binding (METTL23) | binding [1] | Binder
1 | binds | binds |  |  | B1
2 |  |  | binds | binds | B2
3 |  |  |  | binds | B3
